Values from PubChem BioAssay AID686938 (Drosophila RNAi Screening Center, 2013)
Screen: 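Knock-downs reducing store-operated calcium influx in Drosophila cells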 (primary screen). Cell system: Drosophila S2R+ cells. Reagent: long dsRNA against Drosophila genes, about 0.25 µg dsRNA per well, roughly 10,000 cells. Time to read-out: 5 days of knock-down before the calcium assay. Challenge: thapsigargin (SERCA pump blocker) to empty calcium stores; entry signal taken 4 min after adding it. Detection: 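Duplicate raw fluo-4 intensities per well from a plate reader, at rest and four minutes after thapsigargin emptied calcium stores; entry-to-rest ratio filled for only some wells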. Direction: calcium entry signal: higher = stronger calcium signal after store depletion; resting calcium signal: higher = higher resting calcium signal. Active means: 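Called when the plate z-score of the entry-to-rest ratio, mean of duplicates, falls below −3; wells with low overall dye signal (Fmax z below −2) or more than five off-targets excluded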. Meaning of the calls: active = strongly reduced calcium entry; inactive = no strong reduction.
The deposit covers about 23,000 reagents; this is an unselected part of those that have a named target and a result. Of all reagents, 75 (0.33%) got an active call. 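Raw plate signals without normalisation; calls rest on plate z-scores that were not deposited; ratio present for only 364 wells.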 A plus sign joins genes that one reagent is predicted to hit. The record does not give: the dose of the treatment.

gene | dsRNA | calcium entry signal, replicate 1 (fluorescence units) | calcium entry signal, replicate 2 (fluorescence units) | resting calcium signal, replicate 1 (fluorescence units) | resting calcium signal, replicate 2 (fluorescence units) | Call
CG11961 | DRSC06099 | 3.11e7 | 3.00e7 | 1.47e7 | 1.55e7 | inactive
CG12917 | DRSC06231 | 2.68e7 | 3.93e7 | 1.30e7 | 1.57e7 | inactive
Tfb4 (Transcription factor B4) | DRSC00675 | 3.10e7 | 2.94e7 | 1.55e7 | 1.45e7 | inactive
CG2256 | DRSC18220 | 3.52e7 | 4.12e7 | 1.74e7 | 1.94e7 | inactive
CG32320 | DRSC21514 | 3.84e7 | 3.45e7 | 2.18e7 | 1.61e7 | inactive
CG6738 | DRSC16104 | 4.22e7 | 3.79e7 | 1.97e7 | 1.57e7 | inactive
CG5440 | DRSC00685 | 3.57e7 | 3.40e7 | 1.67e7 | 1.57e7 | inactive
CG11470 | DRSC14313 | 3.15e7 | 4.39e7 | 1.62e7 | 2.04e7 | inactive
CG33223 | DRSC17572 | 3.75e7 | 3.10e7 | 2.00e7 | 1.64e7 | inactive
Pde8 (Phosphodiesterase 8) | DRSC04503 | 4.20e7 | – | 2.22e7 | – | inactive
CG33099 | DRSC15774 | 4.28e7 | 2.84e7 | 1.98e7 | 1.39e7 | inactive
Arc2 (Activity-regulated cytoskeleton associated protein 2) | DRSC06436 | 2.25e7 | 3.52e7 | 1.13e7 | 1.48e7 | inactive
Cpr47Ef (Cuticular protein 47Ef) | DRSC06336 | 2.98e7 | 2.78e7 | 1.58e7 | 1.34e7 | inactive
Cpr47Ef (Cuticular protein 47Ef) | DRSC22450 | 3.65e7 | 2.89e7 | 2.10e7 | 1.44e7 | inactive
Clamp (Chromatin-linked adaptor for MSL proteins) | DRSC03718 | 3.73e7 | – | 1.94e7 | – | inactive
Clamp (Chromatin-linked adaptor for MSL proteins) | DRSC21682 | 3.11e7 | 2.72e7 | 1.80e7 | 1.54e7 | inactive
GlyT (Glycine transporter) | DRSC04512 | 4.46e7 | 4.66e7 | 2.28e7 | 2.20e7 | inactive
CG5697 | DRSC15858 | 5.70e7 | 4.76e7 | 4.54e7 | 2.15e7 | inactive
CG12519 | DRSC10311 | 2.53e7 | 5.42e7 | 1.22e7 | 2.16e7 | inactive
CG12519 | DRSC21549 | 3.64e7 | 3.67e7 | 2.18e7 | 1.68e7 | inactive
GLS (Glutaminase) | DRSC07261 | 3.69e7 | 4.02e7 | 1.68e7 | 1.92e7 | inactive
CG3902 | DRSC10387 | 1.99e7 | 3.87e7 | 1.05e7 | 1.62e7 | inactive
in (inturned) | DRSC11888 | 2.69e7 | 4.68e7 | 1.31e7 | 1.81e7 | inactive
CG31664 | DRSC22084 | 3.93e7 | 4.63e7 | 1.95e7 | 2.71e7 | inactive
PIG-Q (Phosphatidylinositol glycan anchor biosynthesis class Q) | DRSC19138 | 3.27e7 | 3.64e7 | 1.60e7 | 1.71e7 | inactive
CG18301 | DRSC02662 | 3.64e7 | 4.78e7 | 1.85e7 | 2.00e7 | inactive

As entered above:
Cpr47Ef (Cuticular protein 47Ef) [DRSC06336], calcium entry signal, replicate 2 (fluorescence units): 2.78e7
Value for CG31664 [DRSC22084] in “calcium entry signal, replicate 2 (fluorescence units)”: 4.63e7
Under “calcium entry signal, replicate 1 (fluorescence units)”, CG11470 [DRSC14313] has 3.15e7
For “calcium entry signal, replicate 1 (fluorescence units)”, Cpr47Ef (Cuticular protein 47Ef) [DRSC22450] reads 3.65e7
PIG-Q (Phosphatidylinositol glycan anchor biosynthesis class Q) [DRSC19138], calcium entry signal, replicate 2 (fluorescence units) → 3.64e7
Result for Clamp (Chromatin-linked adaptor for MSL proteins) [DRSC03718] under “Call”: inactive

The listing continues.
gene | dsRNA | calcium entry signal, replicate 1 (fluorescence units) | calcium entry signal, replicate 2 (fluorescence units) | resting calcium signal, replicate 1 (fluorescence units) | resting calcium signal, replicate 2 (fluorescence units) | Call
Gld2 (GLD2 poly(A) polymerase) | DRSC15863 | 2.96e7 | 3.49e7 | 1.83e7 | 2.08e7 | inactive
Gld2 (GLD2 poly(A) polymerase) | DRSC23037 | 3.04e7 | 3.30e7 | 1.55e7 | 1.55e7 | inactive
Arfip (Arfaptin) | DRSC15179 | 2.50e7 | 3.29e7 | 1.15e7 | 1.55e7 | inactive
PPP4R2r (Protein phosphatase 4 regulatory subunit 2-related protein) | DRSC18695 | 3.02e7 | 4.73e7 | 1.60e7 | 2.75e7 | inactive
PPP4R2r (Protein phosphatase 4 regulatory subunit 2-related protein) | DRSC21503 | 2.77e7 | 4.16e7 | 1.50e7 | 1.80e7 | inactive
CG11590 | DRSC19411 | 2.91e7 | 3.88e7 | 1.47e7 | 1.80e7 | inactive
CG6621 | DRSC16076 | 4.35e7 | 4.06e7 | 1.95e7 | 1.59e7 | inactive
CG12617 | DRSC02176 | 3.75e7 | 4.28e7 | 1.97e7 | 1.91e7 | inactive
CG14257 | DRSC14752 | 3.26e7 | 5.17e7 | 1.77e7 | 2.25e7 | inactive
PNUTS (Phosphatase 1 nuclear targeting subunit) | DRSC00638 | 4.46e7 | – | 2.39e7 | – | inactive
PNUTS (Phosphatase 1 nuclear targeting subunit) | DRSC22136 | 2.65e7 | 3.77e7 | 1.41e7 | 1.82e7 | inactive
Pgd (Phosphogluconate dehydrogenase) | DRSC18697 | 2.75e7 | 3.60e7 | 1.38e7 | 1.76e7 | inactive
CG13532 | DRSC04174 | 4.04e7 | 4.47e7 | 2.03e7 | 2.14e7 | inactive
SelG (Selenoprotein G) | DRSC19808 | 2.41e7 | 2.82e7 | 1.29e7 | 1.48e7 | inactive
resilin | DRSC05627 | 2.34e7 | 5.24e7 | 1.20e7 | 2.31e7 | inactive
resilin | DRSC06595 | 4.62e7 | 5.05e7 | 1.90e7 | 2.30e7 | inactive
CG40298 | DRSC22274 | 2.42e7 | 3.15e7 | 1.17e7 | 1.43e7 | inactive
fog (folded gastrulation) | DRSC20646 | 3.43e7 | 4.00e7 | 1.60e7 | 1.60e7 | inactive
CG33337 | DRSC13632 | 2.87e7 | 6.56e7 | 1.47e7 | 3.38e7 | inactive
arm (armadillo) | DRSC18738 | 4.30e7 | 4.13e7 | 1.93e7 | 1.94e7 | inactive
CG32243 | DRSC08105 | 3.71e7 | 4.08e7 | 1.67e7 | 1.75e7 | inactive
RpS29 + snoRNA:Psi18S-1275 | DRSC16433 | 1.51e7 | 1.96e7 | 1.03e7 | 1.29e7 | inactive
CG30269 | DRSC04158 | 3.60e7 | 4.42e7 | 1.96e7 | 2.00e7 | inactive
Cluap1 (Clusterin associated protein 1) | DRSC20637 | 5.20e7 | 3.51e7 | 2.41e7 | 1.77e7 | inactive
lost | DRSC12002 | 3.91e7 | 3.39e7 | 2.20e7 | 1.63e7 | inactive
lost | DRSC12234 | 4.08e7 | 4.58e7 | 1.85e7 | 2.33e7 | inactive
lost | DRSC21987 | 2.01e7 | 3.61e7 | 1.04e7 | 1.83e7 | inactive
CG30184 | DRSC22277 | 3.12e7 | 7.72e7 | 1.63e7 | 3.40e7 | inactive
Zdhhc8 (Zinc finger DHHC-type containing 8) | DRSC18044 | 4.21e7 | 5.71e7 | 2.11e7 | 2.88e7 | inactive
Zdhhc8 (Zinc finger DHHC-type containing 8) | DRSC18122 | 4.29e7 | 5.07e7 | 1.97e7 | 2.41e7 | inactive
Vps8 (Vacuolar protein sorting 8) | DRSC09705 | 4.01e7 | 6.55e7 | 2.17e7 | 3.11e7 | inactive
Psf3 (Partner of Sld Five 3) | DRSC18216 | 2.15e7 | 3.45e7 | 1.06e7 | 1.58e7 | inactive
Psf3 (Partner of Sld Five 3) | DRSC21487 | 2.27e7 | 3.20e7 | 1.24e7 | 1.41e7 | inactive
